Consider two molecules from paper PMC12533114.

Sequences of proteins named here, by UniProt entry; tags and fusion partners are left off.
UniProt P51593: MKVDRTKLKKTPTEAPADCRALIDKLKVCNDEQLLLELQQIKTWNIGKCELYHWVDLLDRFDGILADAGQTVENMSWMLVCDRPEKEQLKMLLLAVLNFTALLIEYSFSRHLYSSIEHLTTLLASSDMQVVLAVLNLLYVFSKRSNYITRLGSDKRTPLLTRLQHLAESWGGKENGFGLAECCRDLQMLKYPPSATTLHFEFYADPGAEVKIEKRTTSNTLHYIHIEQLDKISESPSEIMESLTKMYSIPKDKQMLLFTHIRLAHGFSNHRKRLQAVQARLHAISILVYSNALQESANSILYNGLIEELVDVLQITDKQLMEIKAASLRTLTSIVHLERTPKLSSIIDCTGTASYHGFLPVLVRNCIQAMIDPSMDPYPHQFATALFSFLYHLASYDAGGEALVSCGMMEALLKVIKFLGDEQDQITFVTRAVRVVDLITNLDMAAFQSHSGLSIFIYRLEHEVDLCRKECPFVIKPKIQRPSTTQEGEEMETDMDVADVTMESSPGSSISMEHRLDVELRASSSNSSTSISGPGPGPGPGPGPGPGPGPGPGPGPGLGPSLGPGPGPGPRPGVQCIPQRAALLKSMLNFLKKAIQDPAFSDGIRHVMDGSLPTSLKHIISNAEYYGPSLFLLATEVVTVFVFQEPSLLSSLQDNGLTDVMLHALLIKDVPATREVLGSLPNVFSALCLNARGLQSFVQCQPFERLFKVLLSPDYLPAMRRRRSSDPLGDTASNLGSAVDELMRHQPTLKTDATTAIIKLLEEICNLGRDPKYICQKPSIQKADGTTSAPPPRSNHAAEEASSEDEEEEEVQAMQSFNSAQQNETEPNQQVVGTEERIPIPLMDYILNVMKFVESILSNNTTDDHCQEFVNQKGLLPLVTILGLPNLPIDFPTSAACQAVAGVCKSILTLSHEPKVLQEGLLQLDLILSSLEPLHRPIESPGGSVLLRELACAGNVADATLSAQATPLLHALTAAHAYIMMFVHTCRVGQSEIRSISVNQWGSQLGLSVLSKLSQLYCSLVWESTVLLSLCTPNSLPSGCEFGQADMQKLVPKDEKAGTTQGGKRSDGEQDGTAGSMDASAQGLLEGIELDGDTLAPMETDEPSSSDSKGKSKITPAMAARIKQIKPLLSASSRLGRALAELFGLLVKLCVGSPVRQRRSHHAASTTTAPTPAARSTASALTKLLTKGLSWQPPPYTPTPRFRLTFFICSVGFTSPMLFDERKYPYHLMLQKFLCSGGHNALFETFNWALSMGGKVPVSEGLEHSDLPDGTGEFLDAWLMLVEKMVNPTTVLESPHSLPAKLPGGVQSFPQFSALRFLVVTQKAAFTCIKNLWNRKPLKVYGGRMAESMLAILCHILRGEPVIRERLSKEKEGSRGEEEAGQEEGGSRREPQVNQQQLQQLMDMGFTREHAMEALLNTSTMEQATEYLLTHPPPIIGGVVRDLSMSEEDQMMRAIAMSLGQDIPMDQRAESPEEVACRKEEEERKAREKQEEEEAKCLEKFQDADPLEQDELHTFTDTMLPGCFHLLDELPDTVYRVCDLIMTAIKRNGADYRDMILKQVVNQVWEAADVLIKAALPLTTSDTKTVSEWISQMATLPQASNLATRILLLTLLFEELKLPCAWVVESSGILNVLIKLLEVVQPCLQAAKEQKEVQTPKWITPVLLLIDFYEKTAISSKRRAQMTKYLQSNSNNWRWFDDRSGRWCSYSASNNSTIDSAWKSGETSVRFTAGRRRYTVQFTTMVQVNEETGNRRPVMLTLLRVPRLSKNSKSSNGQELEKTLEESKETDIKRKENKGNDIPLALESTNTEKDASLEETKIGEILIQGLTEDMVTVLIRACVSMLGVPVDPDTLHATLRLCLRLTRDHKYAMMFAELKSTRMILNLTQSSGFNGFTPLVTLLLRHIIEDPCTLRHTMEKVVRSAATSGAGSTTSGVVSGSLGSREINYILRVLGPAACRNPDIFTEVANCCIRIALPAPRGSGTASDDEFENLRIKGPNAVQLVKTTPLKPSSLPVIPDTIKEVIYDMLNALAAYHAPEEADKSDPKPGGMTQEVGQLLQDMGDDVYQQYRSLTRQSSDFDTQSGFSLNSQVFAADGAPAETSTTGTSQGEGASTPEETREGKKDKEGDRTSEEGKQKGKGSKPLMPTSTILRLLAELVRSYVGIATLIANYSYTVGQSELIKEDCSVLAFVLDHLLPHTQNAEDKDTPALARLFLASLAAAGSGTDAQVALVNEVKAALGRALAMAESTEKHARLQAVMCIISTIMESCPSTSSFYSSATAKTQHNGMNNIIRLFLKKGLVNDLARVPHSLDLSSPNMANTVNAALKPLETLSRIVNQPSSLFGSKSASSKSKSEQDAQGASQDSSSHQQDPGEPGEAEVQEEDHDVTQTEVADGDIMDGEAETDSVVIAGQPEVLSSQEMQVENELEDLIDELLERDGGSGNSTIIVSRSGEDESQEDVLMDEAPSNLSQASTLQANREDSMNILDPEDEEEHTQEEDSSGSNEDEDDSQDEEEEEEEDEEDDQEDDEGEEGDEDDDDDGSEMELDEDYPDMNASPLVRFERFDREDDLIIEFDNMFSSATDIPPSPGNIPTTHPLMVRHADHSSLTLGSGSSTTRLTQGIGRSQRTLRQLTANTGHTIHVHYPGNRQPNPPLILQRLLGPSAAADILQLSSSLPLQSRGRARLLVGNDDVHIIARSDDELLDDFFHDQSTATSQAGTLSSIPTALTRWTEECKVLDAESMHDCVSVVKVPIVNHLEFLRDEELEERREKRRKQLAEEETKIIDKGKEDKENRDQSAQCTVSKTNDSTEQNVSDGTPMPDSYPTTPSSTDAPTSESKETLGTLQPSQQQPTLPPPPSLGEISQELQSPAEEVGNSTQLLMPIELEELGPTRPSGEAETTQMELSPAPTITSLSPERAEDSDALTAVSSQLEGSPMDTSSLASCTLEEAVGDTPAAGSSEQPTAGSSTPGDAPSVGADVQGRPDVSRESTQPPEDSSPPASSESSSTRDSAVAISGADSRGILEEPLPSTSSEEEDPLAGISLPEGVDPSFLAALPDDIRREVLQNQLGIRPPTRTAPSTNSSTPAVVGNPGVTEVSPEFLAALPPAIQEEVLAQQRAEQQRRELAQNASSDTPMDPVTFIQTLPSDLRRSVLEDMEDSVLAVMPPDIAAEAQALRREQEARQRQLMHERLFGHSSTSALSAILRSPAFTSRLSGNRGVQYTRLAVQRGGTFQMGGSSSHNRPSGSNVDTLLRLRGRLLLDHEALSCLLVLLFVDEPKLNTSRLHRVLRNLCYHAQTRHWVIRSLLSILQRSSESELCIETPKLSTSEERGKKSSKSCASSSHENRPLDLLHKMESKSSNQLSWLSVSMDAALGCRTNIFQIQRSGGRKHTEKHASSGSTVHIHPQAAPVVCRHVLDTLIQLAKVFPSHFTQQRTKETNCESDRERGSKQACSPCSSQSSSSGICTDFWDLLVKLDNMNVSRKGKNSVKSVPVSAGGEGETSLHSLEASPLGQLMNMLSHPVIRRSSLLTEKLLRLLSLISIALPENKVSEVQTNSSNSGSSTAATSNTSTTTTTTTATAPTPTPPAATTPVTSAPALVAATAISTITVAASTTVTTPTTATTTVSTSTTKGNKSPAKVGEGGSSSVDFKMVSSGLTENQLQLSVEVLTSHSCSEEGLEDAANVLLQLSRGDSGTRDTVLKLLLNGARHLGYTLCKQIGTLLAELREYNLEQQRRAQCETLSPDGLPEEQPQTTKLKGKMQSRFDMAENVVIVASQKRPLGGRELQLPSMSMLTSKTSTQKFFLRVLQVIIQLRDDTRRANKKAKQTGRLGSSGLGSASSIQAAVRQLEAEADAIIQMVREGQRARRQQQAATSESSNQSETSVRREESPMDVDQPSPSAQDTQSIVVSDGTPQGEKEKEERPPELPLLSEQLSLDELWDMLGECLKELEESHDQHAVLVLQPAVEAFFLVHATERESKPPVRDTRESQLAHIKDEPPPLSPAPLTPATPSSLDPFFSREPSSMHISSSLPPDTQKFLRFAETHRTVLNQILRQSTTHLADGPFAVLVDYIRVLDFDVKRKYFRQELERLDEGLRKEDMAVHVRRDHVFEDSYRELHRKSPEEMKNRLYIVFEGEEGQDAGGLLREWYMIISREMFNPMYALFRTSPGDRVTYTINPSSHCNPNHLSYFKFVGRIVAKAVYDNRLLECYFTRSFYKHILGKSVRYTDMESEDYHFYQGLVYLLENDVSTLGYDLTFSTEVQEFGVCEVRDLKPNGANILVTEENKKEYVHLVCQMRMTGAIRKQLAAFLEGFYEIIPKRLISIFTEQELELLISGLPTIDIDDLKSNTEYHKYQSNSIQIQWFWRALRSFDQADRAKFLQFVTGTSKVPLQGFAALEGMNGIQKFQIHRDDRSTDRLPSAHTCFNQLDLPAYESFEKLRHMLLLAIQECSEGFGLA

No constants are given. Whether binding was seen depends on the method and setting. Binding seen in cells or lysates may run through a third protein. These calls come from enrichment with a bait or labelling near it, and not all partners need be listed.

For the test, the target named is T1, neurofilament light chain protein (rat (endogenous in SD rats)) (UniProt P19527).
T1 sequence: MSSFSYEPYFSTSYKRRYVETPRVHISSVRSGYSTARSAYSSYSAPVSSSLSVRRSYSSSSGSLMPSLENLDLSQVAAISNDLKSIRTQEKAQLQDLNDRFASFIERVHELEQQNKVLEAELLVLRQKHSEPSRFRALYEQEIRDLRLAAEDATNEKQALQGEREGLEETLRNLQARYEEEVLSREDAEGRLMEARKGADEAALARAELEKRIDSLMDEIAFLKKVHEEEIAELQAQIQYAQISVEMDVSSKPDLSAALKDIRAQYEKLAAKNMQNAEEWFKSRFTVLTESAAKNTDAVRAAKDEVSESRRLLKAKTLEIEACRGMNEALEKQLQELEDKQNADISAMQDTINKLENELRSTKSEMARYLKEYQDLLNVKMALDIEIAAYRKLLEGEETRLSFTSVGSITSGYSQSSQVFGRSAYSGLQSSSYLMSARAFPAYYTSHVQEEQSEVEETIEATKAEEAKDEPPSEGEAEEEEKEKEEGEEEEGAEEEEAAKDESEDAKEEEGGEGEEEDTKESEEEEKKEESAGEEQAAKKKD
The test can be described thus: affinity purification with mass spectrometry; Co-IP of NFL from total protein of control and high-dose atorvastatin rat groups (antibody overnight at 4 °C, Protein A agarose beads 2 h at 4 °C), SDS-PAGE, bands excised and analysed by mass spectrometry.

As to “HUWE1 (from UniProt P51593 1-4454) (enzyme)”, the binding result is reported as “binds”.

B1: SIRT2 (enzyme, UniProt Q5RJQ4 1-350)
chain: MDFLRNLFTQTLGLGSQKERLLDELTLEGVTRYMQSERCRRVICLVGAGISTSAGIPDFRSPSTGLYANLEKYHLPYPEAIFEISYFKKHPEPFFALAKELYPGQFKPTICHYFIRLLKEKGLLLRCYTQNIDTLERVAGLEPQDLVEAHGTFYTSHCVNTSCGKEYTMSWMKEKIFSEATPKCEKCQNVVKPDIVFFGENLPPRFFSCMQSDFSKVDLLIIMGTSLQVQPFASLISKAPLATPRLLINKEKTGQTDPFLGMMMGLGGGMDFDSKKAYRDVAWLGDCDQGCLALADLLGWKELEDLVRREHANIDAQSGSQASNPSATVSPRKSPPPAKEAARTKEKEEH
For B1, the binding entry is reported as “binds”.
